PubChem BioAssay AID504793, Drosophila RNAi Screening Center, 2011

Assay: 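Knock-downs allowing continued mitosis even though DNA is damaged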 (primary screen)
Cells: Drosophila S2R+ cells
Reagent: long dsRNA against Drosophila genes, about 0.25 µg dsRNA per well
Duration: 4 days of dsRNA, then 4 hours of drug before read-out
Conditions: doxorubicin 0.5 µM for 4 hours to cause double-strand breaks, in cells also given a low, harmless dose of dsRNA against nbs to sensitise the assay
Measured: 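Mitotic index as the number of phospho-histone H3-positive cells in each well following doxorubicin, given as raw counts without normalisation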
Direction: mitotic cells: higher = more cells in mitosis, weaker G2 arrest
Active means: 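Genes are called active only when high mitotic counts were reproduced with independent dsRNAs and mitosis was checked for delay without damage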
Calls: active = confirmed in follow-up tests; inactive = not confirmed
The deposit covers about 23,000 reagents; this is an unselected part of those with a known target gene and a result. Of all reagents, 62 (0.27%) are marked active. 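Calls come from follow-up tests whose scores are not deposited, so confirmed genes may have low counts here; counts are not normalised per plate.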 Raw values vary from plate to plate and are shown uncorrected. Entries without a mark were called inactive. A plus sign joins genes that one reagent is predicted to hit.

no.	Gene	dsRNA	mitotic cells, replicate 1
1	Cpr65Au	DRSC22738	7
2	lectin-21Cb	DRSC00355	1
3	C3G	DRSC17929	12
4	C3G	DRSC23077	15
5	C3G	DRSC29081	7
6	FAM21	DRSC06623	3
7	FAM21	DRSC26589	6
8	CG18004	DRSC06705	7
9	CG18004	DRSC26317	3
10	CG3337	DRSC15478	4
11	Jon99Ciii	DRSC16859	9
12	Taz	DRSC07704	11
13	Taz	DRSC22625	7
14	Taz	DRSC27100	7
15	CG13847	DRSC23172	1
16	aux	DRSC12161	2
17	aux	DRSC28178	1
18	Mur82C	DRSC12011	13
19	Mur82C	DRSC12212	12
20	Mur82C	DRSC23420	3
21	CG13578	DRSC04214	9
22	CG4409	DRSC06869	7
23	CG4409	DRSC28040	7
24	Or7a	DRSC18691	13
25	COX6AL	DRSC21454	10
26	Nep4	DRSC15539	6
27	Cpr73D	DRSC11084	1
28	Cpr73D	DRSC26591	6
29	pdm3	DRSC06076	6
30	pdm3	DRSC23181	6
31	pdm3	DRSC27184	4
32	pdm3	DRSC29989	6
33	CG3021	DRSC18165	18
34	CG3021	DRSC18652	10
35	MED10	DRSC10474	9
36	CG33523	DRSC09814	3
37	CG33523	DRSC22155	13
38	CG3726	DRSC23143	8
39	CG3726	DRSC27453	1
40	opa	DRSC12384	6
41	opa	DRSC23152	6
42	opa	DRSC26411	5
43	Psc	DRSC07518	5
44	Psc	DRSC29016	10
45	CG1074	DRSC12143	19
46	CG1074	DRSC29045	3
47	lncRNA:CR32658	DRSC19402	8
48	lncRNA:CR32658	DRSC26860	5
49	fipi	DRSC00465	5
50	fipi	DRSC25365	8
51	MED15	DRSC00267	6
52	MED15	DRSC23615	6
53	CG6983	DRSC10757	6
54	CG16721	DRSC18113	4
55	CG4250	DRSC04455	2
56	l(1)G0020	DRSC18198	6
57	NANS	DRSC15743	8
58	NANS	DRSC27626	6
59	pio	DRSC04386	3
60	pio	DRSC29371	1
61	CG15332	DRSC18015	7
62	CG15332	DRSC25660	10
63	CG7650	DRSC10898	5
64	CG7650	DRSC29711	4
65	Pde1c	DRSC02421	4
66	Pde1c	DRSC02422	3
67	Pde1c	DRSC02423	1
68	Pde1c	DRSC02424	3
69	Pde1c	DRSC02425	4
70	Pde1c	DRSC02426	4
71	Pde1c	DRSC28161	7
72	CG13036 (retired record)	DRSC09916	3
73	mRNA-cap	DRSC19789	14
74	CG31161	DRSC16144	18
75	CG31161	DRSC25099	4
76	ecd	DRSC08574	14
77	Csgalnact	DRSC06228	6
78	CG5849	DRSC15893	11
79	InR	DRSC16717	5
80	InR	DRSC36685	9
81	Aven	DRSC19693	2
82	Gr64e + Gr64d	DRSC28375	8
83	PK1-R	DRSC16577	4
84	emei	DRSC10897	4
85	emei	DRSC22684	16
86	CG42233	DRSC14328	5
87	CG42233	DRSC15416	9
88	CG42233	DRSC24948	4
89	CG42233	DRSC26880	6
90	shot	DRSC05459	7
91	shot	DRSC05460	3
92	shot	DRSC07682	4
93	shot	DRSC25070	8
94	dpr10	DRSC09015	9
95	dpr10	DRSC10159	3
96	dpr10	DRSC10160	5
97	Zw	DRSC20303	7
98	Zw	DRSC27667	5
99	hec	DRSC19895	6
100	CG12883	DRSC14570	11
101	CG12883	DRSC27305	2
102	fng	DRSC11455	2
103	fng	DRSC11887	7
104	fng	DRSC21935	7
105	Cep164	DRSC20163	9
106	loj	DRSC09791	6
107	SdhB	DRSC05018	23
108	SdhB	DRSC21367	17
109	CG33169	DRSC11853	4
110	CG33169	DRSC27830	9

Entries listed so far whose gene name begins with O or o:
Gene	dsRNA	mitotic cells, replicate 1
Or7a	DRSC18691	13
opa	DRSC12384	6
opa	DRSC23152	6
opa	DRSC26411	5
